The supplement of paper PMC10849652
Some of the results follow.

Protein sequences, listed by entry. Tags and fused reporters are not part of them. Lines headed by an entry give the natural chain unless they say otherwise; changes in a name come on top.
UniProt P40306: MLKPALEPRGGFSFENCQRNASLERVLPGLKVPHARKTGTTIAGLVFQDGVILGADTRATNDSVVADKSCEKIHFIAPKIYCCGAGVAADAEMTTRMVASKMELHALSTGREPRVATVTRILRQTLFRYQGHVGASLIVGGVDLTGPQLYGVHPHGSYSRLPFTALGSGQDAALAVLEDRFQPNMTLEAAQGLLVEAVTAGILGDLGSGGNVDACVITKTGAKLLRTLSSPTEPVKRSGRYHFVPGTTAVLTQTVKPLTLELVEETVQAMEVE
UniProt Q12913: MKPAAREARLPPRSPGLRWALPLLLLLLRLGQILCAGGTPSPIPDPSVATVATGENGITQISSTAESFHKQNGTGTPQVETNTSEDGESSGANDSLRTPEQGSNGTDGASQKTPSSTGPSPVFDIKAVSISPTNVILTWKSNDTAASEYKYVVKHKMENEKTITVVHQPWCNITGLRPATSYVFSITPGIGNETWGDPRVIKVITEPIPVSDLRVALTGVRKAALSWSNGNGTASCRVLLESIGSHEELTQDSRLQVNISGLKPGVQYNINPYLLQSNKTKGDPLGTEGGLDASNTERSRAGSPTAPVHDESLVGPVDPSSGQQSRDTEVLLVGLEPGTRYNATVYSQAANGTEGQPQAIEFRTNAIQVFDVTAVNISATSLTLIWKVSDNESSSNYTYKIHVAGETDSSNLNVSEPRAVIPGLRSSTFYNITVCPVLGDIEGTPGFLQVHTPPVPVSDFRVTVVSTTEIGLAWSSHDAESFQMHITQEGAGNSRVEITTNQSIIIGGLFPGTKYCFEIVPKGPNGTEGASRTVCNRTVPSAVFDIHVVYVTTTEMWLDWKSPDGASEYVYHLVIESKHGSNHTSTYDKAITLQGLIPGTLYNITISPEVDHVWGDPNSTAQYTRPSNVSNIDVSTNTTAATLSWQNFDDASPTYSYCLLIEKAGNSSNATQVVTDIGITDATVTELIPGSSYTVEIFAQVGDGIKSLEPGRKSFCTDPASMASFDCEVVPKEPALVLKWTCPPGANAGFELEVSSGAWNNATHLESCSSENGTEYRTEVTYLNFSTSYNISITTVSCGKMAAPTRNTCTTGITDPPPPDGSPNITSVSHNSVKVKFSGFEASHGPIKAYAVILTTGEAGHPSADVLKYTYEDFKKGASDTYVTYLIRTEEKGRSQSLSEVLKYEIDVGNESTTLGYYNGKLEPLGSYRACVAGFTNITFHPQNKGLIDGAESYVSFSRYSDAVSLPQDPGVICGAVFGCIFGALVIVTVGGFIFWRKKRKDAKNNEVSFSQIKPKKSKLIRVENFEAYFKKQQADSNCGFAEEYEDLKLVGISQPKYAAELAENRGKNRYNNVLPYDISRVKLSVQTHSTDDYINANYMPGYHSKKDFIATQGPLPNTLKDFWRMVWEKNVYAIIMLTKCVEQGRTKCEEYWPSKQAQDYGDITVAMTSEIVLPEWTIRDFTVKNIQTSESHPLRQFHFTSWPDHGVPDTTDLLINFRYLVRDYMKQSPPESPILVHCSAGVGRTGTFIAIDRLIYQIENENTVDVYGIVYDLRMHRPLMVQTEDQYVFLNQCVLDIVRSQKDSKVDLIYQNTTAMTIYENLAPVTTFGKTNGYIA
UniProt P28062: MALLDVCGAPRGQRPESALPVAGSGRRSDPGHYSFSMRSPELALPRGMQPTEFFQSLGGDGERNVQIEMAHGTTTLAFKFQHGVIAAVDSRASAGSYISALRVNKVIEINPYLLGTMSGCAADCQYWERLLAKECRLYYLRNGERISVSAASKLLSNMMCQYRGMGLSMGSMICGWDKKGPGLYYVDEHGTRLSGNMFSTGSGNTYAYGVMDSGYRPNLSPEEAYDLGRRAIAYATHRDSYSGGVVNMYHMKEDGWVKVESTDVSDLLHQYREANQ
UniProt P60900, whole entry, looked up: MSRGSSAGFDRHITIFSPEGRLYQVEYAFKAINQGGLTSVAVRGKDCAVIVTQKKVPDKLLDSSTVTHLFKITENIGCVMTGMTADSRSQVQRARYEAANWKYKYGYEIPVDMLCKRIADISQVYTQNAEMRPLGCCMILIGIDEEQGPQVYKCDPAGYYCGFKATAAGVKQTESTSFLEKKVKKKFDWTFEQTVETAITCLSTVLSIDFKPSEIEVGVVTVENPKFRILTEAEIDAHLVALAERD
UniProt O00231, whole entry, looked up: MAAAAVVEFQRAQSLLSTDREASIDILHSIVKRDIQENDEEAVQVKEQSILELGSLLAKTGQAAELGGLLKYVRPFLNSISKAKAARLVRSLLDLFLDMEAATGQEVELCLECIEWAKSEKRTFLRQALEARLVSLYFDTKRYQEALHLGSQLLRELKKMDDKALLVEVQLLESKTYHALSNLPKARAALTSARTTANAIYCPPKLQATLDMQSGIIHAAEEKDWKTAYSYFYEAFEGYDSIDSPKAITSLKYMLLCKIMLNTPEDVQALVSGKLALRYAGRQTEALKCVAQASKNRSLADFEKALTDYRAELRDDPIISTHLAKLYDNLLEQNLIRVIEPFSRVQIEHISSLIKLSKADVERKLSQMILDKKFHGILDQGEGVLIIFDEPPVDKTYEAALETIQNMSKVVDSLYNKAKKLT
UniProt Q08623: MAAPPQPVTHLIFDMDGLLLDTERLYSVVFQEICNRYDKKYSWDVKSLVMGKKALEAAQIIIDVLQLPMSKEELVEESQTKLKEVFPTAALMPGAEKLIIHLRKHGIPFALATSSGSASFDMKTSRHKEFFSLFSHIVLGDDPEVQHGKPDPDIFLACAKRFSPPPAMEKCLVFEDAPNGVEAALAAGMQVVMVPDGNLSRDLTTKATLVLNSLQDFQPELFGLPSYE
UniProt Q9Y6M0: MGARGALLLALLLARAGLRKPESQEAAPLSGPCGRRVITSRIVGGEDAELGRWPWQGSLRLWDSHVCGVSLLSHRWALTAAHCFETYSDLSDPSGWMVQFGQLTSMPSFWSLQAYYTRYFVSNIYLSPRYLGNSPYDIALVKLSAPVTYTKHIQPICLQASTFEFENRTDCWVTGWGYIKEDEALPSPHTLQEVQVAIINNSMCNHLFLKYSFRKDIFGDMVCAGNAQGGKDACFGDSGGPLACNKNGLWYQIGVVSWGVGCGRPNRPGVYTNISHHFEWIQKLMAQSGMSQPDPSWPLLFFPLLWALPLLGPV
UniProt Q9BRX8: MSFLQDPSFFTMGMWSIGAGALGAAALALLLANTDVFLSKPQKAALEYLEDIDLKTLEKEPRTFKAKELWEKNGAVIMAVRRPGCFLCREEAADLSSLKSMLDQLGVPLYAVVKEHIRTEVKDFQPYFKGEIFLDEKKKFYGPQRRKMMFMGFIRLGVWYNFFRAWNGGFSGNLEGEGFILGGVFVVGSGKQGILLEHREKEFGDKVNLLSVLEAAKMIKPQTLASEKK
UniProt Q16651: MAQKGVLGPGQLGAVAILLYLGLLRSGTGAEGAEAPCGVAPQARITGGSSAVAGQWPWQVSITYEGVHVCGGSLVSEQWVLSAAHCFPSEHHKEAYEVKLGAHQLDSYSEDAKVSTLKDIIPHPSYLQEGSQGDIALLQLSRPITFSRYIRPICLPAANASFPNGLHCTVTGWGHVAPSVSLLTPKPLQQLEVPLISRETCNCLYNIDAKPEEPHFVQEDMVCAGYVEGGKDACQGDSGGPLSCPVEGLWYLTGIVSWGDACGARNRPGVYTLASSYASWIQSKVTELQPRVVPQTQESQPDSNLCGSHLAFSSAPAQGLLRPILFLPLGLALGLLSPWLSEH
UniProt Q86Y79: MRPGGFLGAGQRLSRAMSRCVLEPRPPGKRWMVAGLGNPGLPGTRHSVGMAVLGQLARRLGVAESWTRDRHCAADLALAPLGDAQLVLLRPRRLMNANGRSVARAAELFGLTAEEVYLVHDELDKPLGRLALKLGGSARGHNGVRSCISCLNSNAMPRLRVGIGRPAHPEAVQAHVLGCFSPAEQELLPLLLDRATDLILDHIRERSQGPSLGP
UniProt P60484: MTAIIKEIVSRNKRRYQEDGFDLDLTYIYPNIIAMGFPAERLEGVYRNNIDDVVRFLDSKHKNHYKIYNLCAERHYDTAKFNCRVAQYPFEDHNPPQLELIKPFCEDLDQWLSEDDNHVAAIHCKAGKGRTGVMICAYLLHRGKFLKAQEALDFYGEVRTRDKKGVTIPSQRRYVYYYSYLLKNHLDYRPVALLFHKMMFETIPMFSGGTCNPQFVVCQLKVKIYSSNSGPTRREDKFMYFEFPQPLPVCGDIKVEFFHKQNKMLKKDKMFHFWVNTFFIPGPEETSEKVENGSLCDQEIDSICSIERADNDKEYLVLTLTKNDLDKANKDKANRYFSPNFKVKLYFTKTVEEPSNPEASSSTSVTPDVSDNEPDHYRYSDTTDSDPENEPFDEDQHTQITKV
UniProt Q9UI38: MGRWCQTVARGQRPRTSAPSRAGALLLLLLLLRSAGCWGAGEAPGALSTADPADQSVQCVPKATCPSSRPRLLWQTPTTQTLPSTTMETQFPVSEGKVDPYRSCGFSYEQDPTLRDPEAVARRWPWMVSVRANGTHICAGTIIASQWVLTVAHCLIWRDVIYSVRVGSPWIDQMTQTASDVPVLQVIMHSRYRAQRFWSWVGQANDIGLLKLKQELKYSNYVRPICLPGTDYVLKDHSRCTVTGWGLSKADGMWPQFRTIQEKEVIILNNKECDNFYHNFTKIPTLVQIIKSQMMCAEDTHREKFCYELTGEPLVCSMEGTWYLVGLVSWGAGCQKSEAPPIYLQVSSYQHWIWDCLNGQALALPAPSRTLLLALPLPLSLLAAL
UniProt Q8WUK0: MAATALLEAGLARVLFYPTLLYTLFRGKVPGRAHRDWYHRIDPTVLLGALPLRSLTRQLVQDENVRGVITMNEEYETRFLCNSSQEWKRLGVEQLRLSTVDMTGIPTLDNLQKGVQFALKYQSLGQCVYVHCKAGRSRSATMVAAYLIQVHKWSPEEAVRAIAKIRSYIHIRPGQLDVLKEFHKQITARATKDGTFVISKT
UniProt P07478, whole entry, looked up: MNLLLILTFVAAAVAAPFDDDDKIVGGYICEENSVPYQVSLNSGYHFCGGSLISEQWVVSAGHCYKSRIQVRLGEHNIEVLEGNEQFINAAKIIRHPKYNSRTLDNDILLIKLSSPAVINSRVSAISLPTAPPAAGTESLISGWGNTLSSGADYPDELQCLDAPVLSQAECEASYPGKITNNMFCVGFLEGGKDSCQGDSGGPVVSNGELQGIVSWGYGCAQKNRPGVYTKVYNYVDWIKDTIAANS
UniProt Q8N0Z8: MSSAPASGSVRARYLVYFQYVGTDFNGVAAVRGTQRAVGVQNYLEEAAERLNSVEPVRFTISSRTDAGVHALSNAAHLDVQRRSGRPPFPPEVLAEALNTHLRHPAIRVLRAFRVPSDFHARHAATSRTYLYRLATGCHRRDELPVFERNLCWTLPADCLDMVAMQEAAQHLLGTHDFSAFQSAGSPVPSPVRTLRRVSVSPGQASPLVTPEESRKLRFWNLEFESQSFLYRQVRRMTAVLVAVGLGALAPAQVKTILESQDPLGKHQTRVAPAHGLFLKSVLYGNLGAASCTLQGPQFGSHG

Columns and labels:
Test in all cases: log2 fold change, soluble protein after heating vs DMSO (PISA); higher = thermal stabilisation; K562 lysate, 10 uM; active = over 0.2 and 3.5 SD of the protein, either way, in both replicates (recomputed)
[1] = compound: CN1CC[C@H](c2c(O)cc(O)c3c(=O)cc(-c4ccccc4Cl)oc23)[C@H](O)C1 [alvocidib]
In short: (§1)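 Quantification was by TMTpro 16plex LC-MS/MS with equalised channel sums, applied to the supernatant after 21,000xg for 90 min. Samples were crude K562 extract at 1 mg/mL protein in PBS pH 7.4 with 1 mM MgCl2, treated with 10 μM compound for 30 min, heated for 3 min across 48°C-58°C, pooled and brought to 0.5% NP-40 at 4°C. Values are log-two fold changes in thermal stability relative to solvent controls, from duplicates.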

[2] = compound: CN1CCc2c(c3ccccc3n2Cc2ccc(C(=O)NO)cc2)C1 [Tubastatin A]
In short: as §1

[3] = compound: CNC(=O)c1ccc(Nc2ncc(C(F)(F)F)c(NCc3nccnc3N(C)S(C)(=O)=O)n2)cc1 [defactinib]
In short: as §1

[4] = compound: CNc1nc(-c2ccc3c(N)n[nH]c3c2)cc(N2C[C@@H](C(=O)NC3CCCCC3)CC[C@H]2C)n1
In short: as §1

[5] = compound: COC(=O)N[C@@H](C)CNc1nccc(-c2cn(C(C)C)nc2-c2cc(Cl)cc(NS(C)(=O)=O)c2F)n1 [encorafenib]
In short: as §1

[6] = compound: COC(=O)[C@H](CCSC)NC(=O)C1=C(C=C(C=C1)NC[C@H](CS)N)C2=CC=CC=C2
In short: as §1

[7] = compound: COc1cc2nc(-c3cc(F)ccc3O)nc(N[C@@H]3CNC[C@H]3C(C)(C)O)c2cc1OC
In short: as §1

[8] = compound: CS(=O)(=O)CCNCc1ccc(-c2ccc3ncnc(Nc4ccc(OCc5cccc(F)c5)c(Cl)c4)c3c2)o1 [lapatinib]
In short: as §1

[9] = compound: CS(=O)(=O)N1CCN(Cc2cc3nc(-c4cccc5[nH]ncc45)nc(N4CCOCC4)c3s2)CC1 [pictilisib]
In short: as §1

[10] = compound: C[C@@H](Oc1cc(-c2cnn(C3CCNCC3)c2)cnc1N)c1c(Cl)ccc(F)c1Cl [crizotinib]
In short: as §1

[11] = compound: C[C@H](C1=CC=C(C=C1)C(=O)NC2=C3C=CNC3=NC=C2)N
In short: as §1

[12] = compound: C[C@H](Nc1ncnc2nc[nH]c12)c1cc2cccc(Cl)c2c(=O)n1-c1ccccc1 [duvelisib]
In short: as §1

[13] = compound: Cc1cc(Nc2cc(CN3CCOCC3)c3nc(C)c(Cc4ccc(Cl)cc4F)n3n2)n[nH]1 [gandotinib]
In short: as §1

[14] = compound: Cc1cc(Nc2cc(N3CCN(C)CC3)nc(Sc3ccc(NC(=O)C4CC4)cc3)n2)n[nH]1 [tozasertib]
In short: as §1

[15] = compound: Cc1ccc(-n2nc(C(C)(C)C)cc2NC(=O)Nc2ccc(OCCN3CCOCC3)c3ccccc23)cc1 [doramapimod]
In short: as §1

[16] = compound: Cc1ccc(NC(=O)c2ccc(CN3CC[C@H](N(C)C)C3)c(C(F)(F)F)c2)cc1Nc1nccc(-c2cncnc2)n1 [bafetinib]
In short: as §1

[17] = compound: Cc1cccc(CC(=O)N2CCc3c2ccc(-c2cn(C)c4ncnc(N)c24)c3F)n1
In short: as §1

[18] = compound: CNC(=O)C1=CC=CC=C1NC2=NC(=NC=C2Cl)NC3=C(C=C(C=C3)N4CCOCC4)OC
In short: as §1

[19] = compound: COc1cc(Nc2ncc3c(n2)-c2ccc(Cl)cc2C(c2c(F)cccc2OC)=NC3)ccc1C(=O)O [alisertib]
In short: as §1

[20] = compound: COc1cc2ncnc(Nc3ccc(F)c(Cl)c3)c2cc1OCCCN1CCOCC1 [gefitinib]
In short: as §1

Measured: log2 fold change

PSMB10 (UniProt P40306)
inactive: [1] 0.008 | [2] 0.042 | [3] -0.082 | [4] -0.002 | [5] 0.023 | [6] 0.049 | [7] 0.026 | [8] -0.088 | [9] -0.015 | [10] -0.013 | [11] 0.003 | [12] 0.069 | [13] 0.009 | [14] 0.101 | [15] -0.013 | [16] 0.025 | [17] -0.032

PTPRJ (UniProt Q12913)
inactive: [1] -0.059 | [2] -0.046 | [18] -0.011 | [3] 0.228 | [5] 0.057 | [6] -0.068 | [19] -0.098 | [7] 0.031 | [20] -0.075 | [8] 0.043 | [9] -0.09 | [10] 0.054 | [11] -0.206 | [13] 0.003 | [14] 0.025 | [15] -0.242 | [16] 0.112 | [17] -0.014

PSMB8 (UniProt P28062)
inactive: [1] -0.043 | [2] -0.012 | [18] -0.116 | [4] 0.094 | [5] 0.041 | [6] -0.058 | [7] -0.033 | [8] 0.017 | [9] -0.035 | [10] -0.041 | [11] -0.01 | [12] 0.052 | [13] -0.018 | [14] -0.006 | [15] 0.011 | [16] 0.116 | [17] -0.023

PSMF1 (UniProt Q5QPM7)
inactive: [1] -0.088 | [3] -0.002 | [5] -0.207 | [6] -0.092 | [10] -0.049 | [11] -0.104 | [13] 0.1 | [14] -0.119 | [15] 0.129 | [17] -0.014

PSMA6 (UniProt P60900)
inactive: [1] -0.001 | [2] 0.025 | [18] 0.002 | [3] -0.005 | [4] 0.009 | [5] -0.023 | [6] 0.003 | [19] -0.001 | [7] 0.001 | [20] -0.016 | [8] -0.022 | [9] 0.002 | [10] 0.013 | [11] 0.021 | [12] -0.01 | [13] 0.019 | [14] -0.012 | [15] -0.011 | [16] 0.106 | [17] -0.054

PSMD11 (UniProt O00231)
inactive: [1] 0.028 | [2] 0.011 | [18] 0.006 | [3] 0.017 | [4] -0.022 | [5] -0.009 | [6] 0.042 | [19] 0.001 | [7] 0 | [20] -0.029 | [8] -0.013 | [9] -0.009 | [10] 0.026 | [11] -0.012 | [12] 0.003 | [13] -0.054 | [14] -0.032 | [15] -0.04 | [16] -0.012 | [17] -0.027

PUDP isoform 4 (UniProt Q08623)
inactive: [1] 0.014 | [2] 0.066 | [18] 0.016 | [3] 0.06 | [4] 0.02 | [5] 0.01 | [6] -0.023 | [19] -0.017 | [7] -0.007 | [20] -0.016 | [8] -0.019 | [9] 0.008 | [10] 0.009 | [11] -0.009 | [12] 0.016 | [13] 0.045 | [14] 0.034 | [15] -0.015 | [16] 0 | [17] 0.084

PRSS21 (UniProt Q9Y6M0)
inactive: [1] -0.04 | [2] 0.063 | [18] 0.009 | [3] 0.039 | [4] 0.038 | [5] 0.032 | [6] -0.008 | [7] 0.019 | [8] -0.072 | [9] -0.052 | [10] -0.004 | [11] 0.087 | [12] -0.003 | [13] 0.029 | [14] -0.037 | [15] 0.045 | [16] 0.045 | [17] 0.062

PRXL2A (UniProt Q9BRX8)
inactive: [1] -0.004 | [2] 0.095 | [18] 0.064 | [4] 0.177 | [19] 0.012 | [20] -0.025 | [9] 0.024 | [11] 0.108 | [12] 0.009 | [13] -0.018 | [16] -0.22 | [17] -0.111

PSMD4 (UniProt Q5VWC4)
inactive: [1] 0.018 | [2] 0.095 | [18] 0.164 | [3] -0.1 | [19] 0.065 | [20] -0.029 | [9] 0.06 | [10] 0.003 | [11] -0.023 | [13] 0.093 | [15] -0.014 | [16] -0.04 | [17] 0.11

PRSS8 (UniProt Q16651)
inactive: [1] 0.028 | [2] 0.038 | [18] -0.008 | [4] -0.027 | [10] 0.093 | [11] -0.013 | [12] -0.036 | [13] -0.091 | [15] -0.436 | [17] -0.074

PTRH1 (UniProt Q86Y79)
inactive: [1] -0.155 | [2] -0.07 | [18] 0.123 | [3] -0.302 | [5] -0.026 | [6] 0.033 | [10] -0.071 | [11] -0.009 | [13] -0.01 | [14] 0.298 | [15] -0.001 | [17] 0.337

PTEN isoform 2 (UniProt P60484)
inactive: [1] 0.167 | [2] 0.109 | [18] -0.087 | [4] -0.038 | [5] 0.016 | [6] -0.012 | [19] 0.033 | [7] -0.073 | [20] 0.048 | [8] 0.014 | [9] 0.023 | [10] -0.043 | [11] -0.122 | [12] -0.008 | [13] 0.075 | [14] -0.033 | [15] -0.054 | [16] -0.008 | [17] -0.004

PRSS50 (UniProt Q9UI38)
inactive: [1] -0.013 | [4] -0.01 | [5] 0.087 | [6] -0.156 | [7] 0.031 | [8] -0.038 | [9] -0.118 | [11] -0.033 | [12] -0.109 | [13] -0.116 | [14] 0.025 | [16] 0 | [17] 0.056

Retrieved one by one from the entries so far (two):
PTRH1 (UniProt Q86Y79)
inactive: [1] -0.155 | [2] -0.07 | [18] 0.123 | [3] -0.302 | [5] -0.026 | [6] 0.033 | [10] -0.071 | [11] -0.009 | [13] -0.01 | [14] 0.298 | [15] -0.001 | [17] 0.337

PSMB10 (UniProt P40306)
inactive: [1] 0.008 | [2] 0.042 | [3] -0.082 | [4] -0.002 | [5] 0.023 | [6] 0.049 | [7] 0.026 | [8] -0.088 | [9] -0.015 | [10] -0.013 | [11] 0.003 | [12] 0.069 | [13] 0.009 | [14] 0.101 | [15] -0.013 | [16] 0.025 | [17] -0.032

The results go on.

PTPMT1 (UniProt Q8WUK0)
inactive: [1] 0.119 | [2] -0.313 | [18] 0.009 | [3] 0.012 | [4] 0.056 | [5] -0.057 | [6] 0.014 | [19] 0.04 | [7] -0.294 | [20] -0.031 | [8] -0.019 | [9] 0.043 | [10] -0.192 | [11] -0.13 | [12] 0.018 | [13] -0.228 | [14] 0.176 | [15] 0.004 | [16] -0.141 | [17] -0.132

PRSS2 (UniProt P07478)
inactive: [1] -0.013 | [4] -0.049 | [7] -0.106 | [8] 0.126 | [11] -0.046 | [12] 0.141 | [13] -0.01 | [17] -0.036

PUSL1 (UniProt Q8N0Z8)
inactive: [1] 0.007 | [2] -0.038 | [18] -0.009 | [3] -0.109 | [4] 0.08 | [5] 0.188 | [6] -0.301 | [19] 0.039 | [7] -0.029 | [20] -0.045 | [8] -0.03 | [9] 0.008 | [10] 0.009 | [11] 0.005 | [12] 0.077 | [13] -0.007 | [14] 0.052 | [15] 0.048 | [16] -0.383 | [17] -0.005

PSIP1 (UniProt V9GYT7)
inactive: [1] -0.025 | [2] 0.123 | [18] 0.042 | [9] 0.072 | [10] -0.052 | [11] -0.054 | [13] -0.018 | [15] 0.036 | [16] -0.09 | [17] 0.222
